Source: patent US20260071190A1, “SARS CORONAVIRUS 2 R[…] […] GENES, DERIVED FROM GH CLADE SARS CORONAVIRUS 2 OF KOREAN ISOLATE, AND THE PRODUCTION METHOD THEREFOR” (RpexBio, Inc., priority 2022, published 2026)
At least one structure is not confirmed: it was looked up by name or label, or the drawing left a doubt.

Test system: rSARS-COV-2/YS006_Nluc P1 virus
Format: cell-based, SARS coronavirus 2

## CCC(CC)COC(=O)[C@H](C)N[P@](=O)(OC[C@H]1O[C@@](C#N)(c2ccc3c(N)ncnn23)[C@H](O)[C@@H]1O)Oc1ccccc1 [remdesivir]
  nanoluciferase activity (replication inhibition): significantly reduced
